No constants are given. Whether binding was seen depends on the method and setting. In cells and extracts the contact can be indirect. Here binding means that the protein was enriched with, or labelled near, the bait; the list need not be complete.

Protein sequences, listed by entry. Tags and fused reporters are not part of them.
UniProt Q96RU2: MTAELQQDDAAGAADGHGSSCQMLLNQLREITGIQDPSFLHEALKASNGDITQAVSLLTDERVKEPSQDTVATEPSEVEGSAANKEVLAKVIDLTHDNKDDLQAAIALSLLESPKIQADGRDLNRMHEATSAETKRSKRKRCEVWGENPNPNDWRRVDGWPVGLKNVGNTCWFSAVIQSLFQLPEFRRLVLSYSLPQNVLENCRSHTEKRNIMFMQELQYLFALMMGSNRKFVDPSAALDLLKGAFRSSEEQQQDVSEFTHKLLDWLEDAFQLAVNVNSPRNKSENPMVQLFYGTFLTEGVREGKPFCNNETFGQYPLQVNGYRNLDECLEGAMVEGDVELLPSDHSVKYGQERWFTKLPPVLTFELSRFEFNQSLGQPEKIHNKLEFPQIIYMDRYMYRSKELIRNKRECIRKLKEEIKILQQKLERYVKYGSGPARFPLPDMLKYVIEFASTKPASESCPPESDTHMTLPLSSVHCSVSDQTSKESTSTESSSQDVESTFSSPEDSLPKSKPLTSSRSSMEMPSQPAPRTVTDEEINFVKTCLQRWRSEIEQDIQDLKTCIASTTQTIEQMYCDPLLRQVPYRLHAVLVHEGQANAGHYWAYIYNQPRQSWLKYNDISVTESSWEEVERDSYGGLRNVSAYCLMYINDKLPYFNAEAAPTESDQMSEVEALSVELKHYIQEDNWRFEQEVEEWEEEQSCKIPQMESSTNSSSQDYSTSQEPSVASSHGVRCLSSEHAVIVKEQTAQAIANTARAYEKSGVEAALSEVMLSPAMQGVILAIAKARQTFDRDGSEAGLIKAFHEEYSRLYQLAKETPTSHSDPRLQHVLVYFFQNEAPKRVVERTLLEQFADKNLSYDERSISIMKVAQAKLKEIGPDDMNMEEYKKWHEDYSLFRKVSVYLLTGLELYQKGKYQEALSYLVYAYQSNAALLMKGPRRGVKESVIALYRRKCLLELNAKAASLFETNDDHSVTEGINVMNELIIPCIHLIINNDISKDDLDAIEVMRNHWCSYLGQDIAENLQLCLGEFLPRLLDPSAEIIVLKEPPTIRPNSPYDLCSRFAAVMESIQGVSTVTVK
UniProt Q14980: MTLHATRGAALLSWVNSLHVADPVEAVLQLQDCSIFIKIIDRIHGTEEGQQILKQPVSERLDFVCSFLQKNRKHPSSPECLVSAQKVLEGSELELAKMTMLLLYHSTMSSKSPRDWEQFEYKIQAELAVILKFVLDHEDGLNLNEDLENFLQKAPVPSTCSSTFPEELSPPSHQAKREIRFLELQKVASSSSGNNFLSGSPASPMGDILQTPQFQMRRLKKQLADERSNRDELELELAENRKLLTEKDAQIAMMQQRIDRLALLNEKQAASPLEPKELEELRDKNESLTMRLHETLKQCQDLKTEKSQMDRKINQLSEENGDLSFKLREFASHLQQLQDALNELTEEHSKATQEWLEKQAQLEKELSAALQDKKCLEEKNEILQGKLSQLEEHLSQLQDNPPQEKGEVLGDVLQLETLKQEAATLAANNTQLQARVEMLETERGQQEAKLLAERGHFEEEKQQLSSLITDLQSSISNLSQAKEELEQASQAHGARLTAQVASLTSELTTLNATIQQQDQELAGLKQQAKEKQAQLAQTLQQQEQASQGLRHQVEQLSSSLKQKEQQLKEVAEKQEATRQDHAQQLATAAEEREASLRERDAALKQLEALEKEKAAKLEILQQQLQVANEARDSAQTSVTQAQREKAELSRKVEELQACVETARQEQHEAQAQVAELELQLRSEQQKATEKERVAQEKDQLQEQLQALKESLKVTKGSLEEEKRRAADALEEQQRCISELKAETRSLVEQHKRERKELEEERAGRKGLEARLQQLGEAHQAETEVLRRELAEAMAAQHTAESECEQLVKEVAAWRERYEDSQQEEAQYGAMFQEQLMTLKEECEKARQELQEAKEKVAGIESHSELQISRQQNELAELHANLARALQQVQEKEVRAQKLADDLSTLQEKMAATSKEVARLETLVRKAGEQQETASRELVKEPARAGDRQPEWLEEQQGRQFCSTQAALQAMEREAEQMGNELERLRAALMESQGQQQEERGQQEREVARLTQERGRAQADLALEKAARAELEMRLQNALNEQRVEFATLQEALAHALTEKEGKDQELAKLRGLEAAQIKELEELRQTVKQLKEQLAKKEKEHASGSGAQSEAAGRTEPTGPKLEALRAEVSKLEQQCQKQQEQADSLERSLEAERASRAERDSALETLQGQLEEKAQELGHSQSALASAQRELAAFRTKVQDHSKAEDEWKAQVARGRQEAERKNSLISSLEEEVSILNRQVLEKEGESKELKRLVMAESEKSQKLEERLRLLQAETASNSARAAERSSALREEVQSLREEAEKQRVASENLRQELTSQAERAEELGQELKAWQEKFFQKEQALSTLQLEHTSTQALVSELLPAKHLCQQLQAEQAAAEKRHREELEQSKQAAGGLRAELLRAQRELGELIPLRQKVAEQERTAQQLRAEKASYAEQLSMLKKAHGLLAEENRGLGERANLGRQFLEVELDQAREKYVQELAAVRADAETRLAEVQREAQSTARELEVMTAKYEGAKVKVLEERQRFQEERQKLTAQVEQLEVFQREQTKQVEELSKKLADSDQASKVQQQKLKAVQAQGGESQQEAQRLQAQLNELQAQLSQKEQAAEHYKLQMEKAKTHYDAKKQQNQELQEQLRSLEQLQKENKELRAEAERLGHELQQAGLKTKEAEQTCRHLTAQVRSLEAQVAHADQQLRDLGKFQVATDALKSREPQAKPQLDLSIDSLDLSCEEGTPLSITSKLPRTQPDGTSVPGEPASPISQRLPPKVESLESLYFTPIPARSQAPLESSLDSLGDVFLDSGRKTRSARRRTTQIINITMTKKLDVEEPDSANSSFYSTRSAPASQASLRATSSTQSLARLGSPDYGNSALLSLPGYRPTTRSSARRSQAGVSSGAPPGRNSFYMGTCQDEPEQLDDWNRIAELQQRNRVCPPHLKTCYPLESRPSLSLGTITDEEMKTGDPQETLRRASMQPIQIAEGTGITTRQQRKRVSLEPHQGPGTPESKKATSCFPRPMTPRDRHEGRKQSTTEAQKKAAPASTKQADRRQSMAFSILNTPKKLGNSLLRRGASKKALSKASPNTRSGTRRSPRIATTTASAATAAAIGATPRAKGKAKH
UniProt Q14676: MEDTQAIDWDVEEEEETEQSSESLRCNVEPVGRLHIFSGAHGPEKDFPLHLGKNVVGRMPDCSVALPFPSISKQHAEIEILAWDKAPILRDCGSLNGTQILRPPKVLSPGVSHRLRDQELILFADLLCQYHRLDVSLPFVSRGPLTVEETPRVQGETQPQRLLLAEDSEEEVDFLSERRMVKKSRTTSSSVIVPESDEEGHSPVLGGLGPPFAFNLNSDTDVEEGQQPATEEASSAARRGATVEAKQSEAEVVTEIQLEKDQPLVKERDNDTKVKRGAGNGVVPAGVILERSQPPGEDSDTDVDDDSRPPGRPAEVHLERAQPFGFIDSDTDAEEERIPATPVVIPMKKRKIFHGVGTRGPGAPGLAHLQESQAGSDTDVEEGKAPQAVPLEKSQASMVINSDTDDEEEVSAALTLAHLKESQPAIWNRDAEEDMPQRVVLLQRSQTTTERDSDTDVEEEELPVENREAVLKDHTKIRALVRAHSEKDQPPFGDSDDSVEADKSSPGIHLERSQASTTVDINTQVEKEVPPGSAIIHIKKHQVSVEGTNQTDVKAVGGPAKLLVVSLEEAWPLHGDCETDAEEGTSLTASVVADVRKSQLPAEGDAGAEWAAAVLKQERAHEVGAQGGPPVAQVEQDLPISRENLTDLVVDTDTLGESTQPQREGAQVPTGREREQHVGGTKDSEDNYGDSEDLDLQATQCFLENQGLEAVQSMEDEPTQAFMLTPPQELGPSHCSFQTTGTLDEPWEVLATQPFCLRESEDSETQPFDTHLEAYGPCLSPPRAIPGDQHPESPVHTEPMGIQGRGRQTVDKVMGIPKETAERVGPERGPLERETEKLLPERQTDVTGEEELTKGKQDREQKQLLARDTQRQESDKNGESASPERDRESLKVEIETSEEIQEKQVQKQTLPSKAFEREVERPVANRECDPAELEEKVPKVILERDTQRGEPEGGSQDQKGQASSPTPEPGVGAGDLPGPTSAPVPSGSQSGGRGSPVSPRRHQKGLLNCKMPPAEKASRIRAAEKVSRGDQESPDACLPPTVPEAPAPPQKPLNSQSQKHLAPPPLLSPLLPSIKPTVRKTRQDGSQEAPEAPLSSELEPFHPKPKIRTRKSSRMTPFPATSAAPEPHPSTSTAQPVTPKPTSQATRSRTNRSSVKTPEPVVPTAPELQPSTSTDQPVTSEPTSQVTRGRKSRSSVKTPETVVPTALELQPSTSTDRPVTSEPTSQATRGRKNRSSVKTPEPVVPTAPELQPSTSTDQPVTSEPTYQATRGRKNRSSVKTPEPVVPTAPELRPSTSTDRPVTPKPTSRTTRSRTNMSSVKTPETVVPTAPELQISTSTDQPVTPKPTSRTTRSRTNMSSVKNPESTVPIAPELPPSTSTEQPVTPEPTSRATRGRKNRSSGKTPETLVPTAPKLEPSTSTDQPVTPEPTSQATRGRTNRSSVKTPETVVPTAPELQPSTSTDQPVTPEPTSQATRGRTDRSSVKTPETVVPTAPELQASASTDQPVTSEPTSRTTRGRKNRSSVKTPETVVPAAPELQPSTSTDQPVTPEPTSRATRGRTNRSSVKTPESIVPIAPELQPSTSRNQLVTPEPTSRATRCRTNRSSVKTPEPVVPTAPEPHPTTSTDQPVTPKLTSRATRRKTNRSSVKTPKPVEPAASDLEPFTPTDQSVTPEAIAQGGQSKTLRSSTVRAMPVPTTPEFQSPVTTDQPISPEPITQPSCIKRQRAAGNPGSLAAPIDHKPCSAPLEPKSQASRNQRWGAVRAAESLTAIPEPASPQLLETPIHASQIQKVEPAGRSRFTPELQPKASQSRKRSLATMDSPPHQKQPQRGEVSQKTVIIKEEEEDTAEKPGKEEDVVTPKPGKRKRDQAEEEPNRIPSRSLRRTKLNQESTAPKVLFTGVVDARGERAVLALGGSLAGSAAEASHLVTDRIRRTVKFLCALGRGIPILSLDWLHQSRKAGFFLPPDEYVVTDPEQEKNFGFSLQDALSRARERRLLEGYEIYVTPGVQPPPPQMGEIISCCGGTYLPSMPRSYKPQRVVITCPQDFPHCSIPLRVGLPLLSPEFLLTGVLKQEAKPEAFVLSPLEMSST

The text below walks through data of paper doi:10.1101/2020.09.18.303834.

The target of the assay is USP28 (Ubiquitin Specific Peptidase 28) (human (endogenous in HCT116)) (UniProt Q96RU2). Briefly: affinity purification with mass spectrometry.

Turning to “Nuclear mitotic apparatus protein 1 (NuMA1) (from UniProt Q14980 1-2115)”, the binding entry was “binds”. For the substance “mediator of DNA damage checkpoint 1 (MDC1) (from UniProt Q14676 1-2089)”, the binding entry is listed as “binds”.
